Results: publication doi:10.1101/2021.05.26.444586
These are yes or no findings as the source states them, for the method shown. In cells and extracts the contact can be indirect. Some binding calls cover weakened binding; strength is not graded here. Tags and fused reporters may be left off the sequences shown.

Target: T1, MIM-FLAG (Mus musculus) (UniProt Q8R1S4)
T1 sequence: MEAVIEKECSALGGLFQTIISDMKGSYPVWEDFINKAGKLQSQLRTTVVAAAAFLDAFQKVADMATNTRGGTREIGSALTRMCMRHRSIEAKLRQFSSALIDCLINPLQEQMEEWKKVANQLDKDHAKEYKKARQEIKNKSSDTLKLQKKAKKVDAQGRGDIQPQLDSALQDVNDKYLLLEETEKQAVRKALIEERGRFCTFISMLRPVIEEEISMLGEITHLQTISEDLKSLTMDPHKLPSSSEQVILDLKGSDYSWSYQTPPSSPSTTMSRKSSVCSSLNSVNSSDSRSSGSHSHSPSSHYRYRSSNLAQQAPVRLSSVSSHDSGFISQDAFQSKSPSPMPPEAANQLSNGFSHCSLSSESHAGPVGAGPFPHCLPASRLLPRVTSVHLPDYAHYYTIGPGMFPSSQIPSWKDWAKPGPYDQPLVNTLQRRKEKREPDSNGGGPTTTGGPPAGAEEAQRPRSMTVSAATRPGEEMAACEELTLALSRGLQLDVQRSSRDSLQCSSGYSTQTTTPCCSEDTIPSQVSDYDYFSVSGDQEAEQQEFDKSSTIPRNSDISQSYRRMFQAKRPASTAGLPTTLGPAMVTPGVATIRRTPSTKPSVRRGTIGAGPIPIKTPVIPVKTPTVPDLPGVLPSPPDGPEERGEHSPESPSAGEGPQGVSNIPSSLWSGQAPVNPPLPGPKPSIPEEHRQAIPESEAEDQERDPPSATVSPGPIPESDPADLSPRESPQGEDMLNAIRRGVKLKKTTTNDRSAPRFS
Assay: co-IP

binding: binds
B1: full-length EVL (tagged, overexpressed) (protein, UniProt P70429 1-414)
chain: MSEQSICQARASVMVYDDTSKKWVPIKPGQQGFSRINIYHNTASSTFRVVGVKLQDQQVVINYSIVKGLKYNQATPTFHQWRDARQVYGLNFASKEEATTFSNAMLFALNIMNSQEGGPSTQRQVQNGPSPEEMDIQRRQVMEQQHRQESLERRISATGPILPPGHPSSAASTTLSCSGPPPPPPPPVPPPPTGSTPPPPPPLPAGGAQGTNHDESSASGLAAALAGAKLRRVQRPEDASGGSSPSGTSKSDANRASSGGGGGGLMEEMNKLLAKRRKAASQTDKPADRKEDESQTEDPSTSPSPGTRATSQPPNSSEAGRKPWERSNSVEKPVSSLLSRTPSVAKSPEAKSPLQSQPHSRVKPAGSVNDVGLDALDLDRMKQEILEEVVRELHKVKEEIIDAIRQELSGISTT
